Measured values taken from publication PMC4728404.
These are yes or no findings as the source states them, for the method shown. In cells and extracts the contact can be indirect. Binding calls can cover weak binding; strength is not graded here. For some assays here: Sequences can lack the tags named with a protein.

Legend:
[1] = target: T1, TIR1-Myc (pDEX:TIR1-Myc plants) (Arabidopsis thaliana) (UniProt Q570C0); test: co-IP; anti-Myc antibody crosslinked to Protein G Dynabeads; 2 mg total protein from 7-day-old pGVG:TIR1-Myc seedlings treated with or without 30 uM dexamethasone for 24 h; 4 h at 4 °C; blots with anti-Myc, anti-HSP90, anti-SGT1
T1 sequence: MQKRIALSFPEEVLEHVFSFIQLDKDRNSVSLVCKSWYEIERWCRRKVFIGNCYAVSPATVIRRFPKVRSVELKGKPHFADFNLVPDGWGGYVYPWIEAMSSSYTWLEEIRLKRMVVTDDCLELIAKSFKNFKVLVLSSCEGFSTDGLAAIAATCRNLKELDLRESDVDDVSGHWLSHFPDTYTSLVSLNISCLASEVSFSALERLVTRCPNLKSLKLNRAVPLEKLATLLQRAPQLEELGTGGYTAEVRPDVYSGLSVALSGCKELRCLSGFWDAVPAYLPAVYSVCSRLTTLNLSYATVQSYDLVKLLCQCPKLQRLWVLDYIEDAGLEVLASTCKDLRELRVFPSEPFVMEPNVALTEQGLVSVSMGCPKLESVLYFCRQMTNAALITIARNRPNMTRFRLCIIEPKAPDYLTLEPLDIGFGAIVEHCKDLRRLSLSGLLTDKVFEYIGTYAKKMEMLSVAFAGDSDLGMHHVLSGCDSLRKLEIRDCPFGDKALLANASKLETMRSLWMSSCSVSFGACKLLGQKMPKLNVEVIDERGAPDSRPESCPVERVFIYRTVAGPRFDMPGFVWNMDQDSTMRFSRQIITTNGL

[2] = target: T2, TIR1-VENUS (pTIR1:gTIR1-VENUS plants) (Arabidopsis thaliana) (UniProt Q570C0); test: co-IP; same procedure with 4 ug anti-GFP antibody; total protein from 7-day-old pTIR1:gTIR1-VENUS seedlings; blots with anti-GFP, anti-HSP90, anti-SGT1
T2 sequence: T1 sequence

binding [1]: binds | binding [2]: binds
Substance: HSP90 (endogenous, Arabidopsis seedlings)
